Measurements reported in US20250296961A1, “ANTIMICROBIAL PEPTIDES FOR REMINERALIZATION OF TEETH AND PREVENTION OF DENTAL CARIES” (The University of Hong Kong, priority 2021, published 2025).
Part of at least one peptide drawing is inferred or uncertain, most often the ends. Residues, ends and D or L forms follow the SMILES beside them.

Tests used:
[1] = Demineralization assay of peptide-coated enamel (Example 1); set-up: species or system human
Experimental: (§1) 3×3×1.5 mm^3 (number: 197) tooth slices were prepared using a water-cooled diamond saw (IsoMet low-speed saw, Buehler, Lake Bluff, IL, USA). One working surface of complete enamel tissue from each tooth slice was generated using the MicroCT Skyscan 1172 (Bruker MicroCT, Kontich, Belgium). The enamel working side of the tooth slice was polished and other sides marked with acid-proof nail polish. All tooth slices were cleaned and stored in deionized water at 4° C.
Tooth slices (N=30) were immersed in 8 μmol/mL P-113, P-113-DPS, P-113-DA, P-113-SK, Sp-H5 (n=5 for each) solutions (in 10 mM HEPES) or HEPES (control) overnight. Tooth slices were incubated in 2 mL demineralization solution (2.2 mM CaCl2), 2.2 mM NaH2PO4, 0.05 M acetic acid, pH 4.5) for 7 days at 37° C. Lesions depths were analyzed by MicroCT Skyscan 1172. Mineral calcium (Ca) or phosphorus (P) concentrations before and after immersion were measured using Inductively Coupled Plasma Optical Emission Spectrometer (ICP-OES; Spectro Arcos, Kleve, Germany). Ca/P loss was expressed as mM/cm^2. The mean values of Ca/P loss were analyzed for each group using ANOVA at the 1% c significance level.

[2] = tested on: S. gordonii; assay: Anti-planktonic bacterial ability, MBC (Example 2); type: cell-based, S. gordonii (ATCC 35105)
Experimental: (§2) S. mutans (ATCC 35668, ATCC, Manassas, USA), S. gordonii (ATCC 35105, ATCC, Manassas, USA), and S. sanguinis (ATCC 10556, ATCC, Manassas, USA) strains were cultured in brain-heart infusion broth (BHI, Difco Laboratories, Detroit, USA) at 37° C. under anaerobic conditions (85% N2, 10% H2, and 5% CO2). Bacteria were harvested by centrifugation (5000 rpm, 10 min), washed once with sodium phosphate-buffered saline (PBS, 10 mM, pH=7.2), and resuspended in BHI at a concentration of 1×10^6 CFU mL^−1.
(§3) Each well was seeded with 10 μL S. mutans suspension, S. gordonii suspension, and S. sanguinis suspension, respectively. […] The bacterial growth was assessed by measuring the absorbance at 595 nm using a microplate reader after a 24-hour incubation. Subsequently, 10 μL of bacterial suspension from each well were plated on horse blood agar plates and incubated at 37° C. for 48 h. The antibacterial activities of AMPs were evaluated.

[3] = tested on: S. sanguinis; assay: Anti-planktonic bacterial ability, MBC (Example 2); type: cell-based, S. sanguinis (ATCC 10556)
Experimental: as §2, §3

[4] = tested on: S. mutans; assay: Anti-bacterial adhesion ability on peptide-coated enamel (Example 1); type: cell-based, Streptococcus mutans (ATCC 35668); conditions: 16 μmol/mL coated, 5 h incubation
Experimental: (§4) Streptococcus mutans (ATCC 35668, ATCC, Manassas, USA) were cultured in Horse Blood Medium under anaerobic (85% N2, 10% H2, and 5% CO2) conditions at 37° C. Cells were harvested by centrifugation (5000 rpm, 10 min), washed once with 10 mM sodium phosphate-buffered saline (PBS, pH 7.2), and resuspended in brain-heart infusion broth (BHI, Difco Laboratories, Detroit, USA) at a concentration of 10^6 CFU/mL.
After overnight incubation, they were placed in a 96-well plate, followed by 200 μL S. mutans in BHI (10^6 CFU/mL) and incubation at 37° C. for 5 h. Tooth slices were washed once with PBS, one tooth slice at random from each group was stained, and fluorescence images obtained by CLSM. Separate tooth slices were used for CFU counting. Three independent biofilm experiments were performed.

[5] = tested on: S. mutans; assay: Anti-planktonic bacterial ability, MBC (Example 2); type: cell-based, S. mutans (ATCC 35668)
Experimental: as §2, §3

[6] = Adsorption time assay on tooth enamel (Micro BCA); type: binding, human; conditions: 10 nmol/mL peptide, 37° C.
Experimental: as §1
Adsorption Time Assay The adsorption time of peptides to the tooth enamel was also tested using the Micro BCA method. Solutions of P-113, P-113-DPS, P-113-DA, and P-113-SK in 10 mM HEPES buffer (pH 7) were diluted to 10 nmol/mL. Enamel working surfaces of tooth slices (N=20) were exposed to P-113 solution (n=5), P-113-DPS solution (n=5), P-113-DA solution (n=5), and P-113-SK solution (n=5), respectively. The remaining extraneous surfaces were covered with wax. Tubes were placed into a rotator at 37° C. […] After a 30-min incubation, absorbance was measured. A function of C=a*A+b was determined (a and b are constants). The concentrations of the peptide solution at different time points (C0, C1, C2, C3, C4, and C5 at 0, 5, 20, 40, 60, and 120 min, respectively) were computed based on absorbances […].

[7] = tested on: S. mutans; assay: Anti-planktonic bacterial ability, MIC and MBC (Example 1); type: cell-based, Streptococcus mutans (ATCC 35668)
Experimental: as §4
Two-fold serial dilutions (in 10 mM HEPES) of P-113, P-113-DPS, P-113-DA, P-113-SK, and Sp-H5 prepared in 25% BHI medium were pipetted into a 96-well cell culture plate at final concentrations from 0.125-128 μmol/mL [100 μL/well]. Each well was seeded with 10 μL bacterial suspension at a final concentration of 10^6 CFU/mL. Sp-H5 with bacterial cells and 25% BHI medium with and without bacterial cells in 10 mM HEPES buffer (pH 7) were used as the positive, negative, and blank control group, respectively. After a 24-h incubation, absorbance was measured at 595 nm using a microplate reader to assess cell growth. […] The minimal bactericidal concentration (MBC) was defined as the lowest concentration of peptide resulting in no colony formation on agar plates after incubation. 10 μL of cell suspension from each well were plated on horse blood agar plates and incubated at 37° C. for 48 h. All determinations were conducted in triplicate experiments.

## C[C@H](N)C(=O)N[C@@H](CCCCN)C(=O)N[C@@H](CCCNC(=N)N)C(=O)N[C@@H](Cc1c[nH]cn1)C(=O)N[C@@H](Cc1c[nH]cn1)C(=O)NCC(=O)N[C@@H](Cc1ccc(O)cc1)C(=O)N[C@@H](CCCCN)C(=O)N[C@@H](CCCNC(=N)N)C(=O)N[C@@H](CCCCN)C(=O)N[C@@H](Cc1ccccc1)C(=O)N[C@@H](Cc1c[nH]cn1)C(=O)N[C@@H](COP(=O)(O)O)C(=O)N[C@@H](COP(=O)(O)O)C(=O)O [Peptide P-113-DPS] (HELM PEPTIDE1{A.K.R.H.H.G.Y.K.R.K.F.H.[O=C([C@H](COP(=O)(O)O)N[*:1])[*:2]].[O=C(O)[C@H](COP(=O)(O)O)N[*:1]]}$$$$V2.0)
[1]; 8 μmol/mL coating, demineralization solution 7 days, MicroCT
  Maximum lesion depth: 75 μm
[1]; vs P-113-, P-113-DA-, P-113-SK-coated or non-coated slices, P<0.001
  Ca and P loss from coated enamel slices (ICP-OES): decreased significantly
[2]
  MBC, S. gordonii: >64 μM mL^−1
[3]
  MBC, S. sanguinis: >64 μM mL^−1
[4]
  Viable counts of S. mutans on peptide-coated enamel surfaces: 2.03E+05 CFU/mL
[5]
  MBC, S. mutans: 16 μM mL^−1
[6]
  Adsorption time on enamel (majority of adsorption / significant decrease in concentration): ≤ 20 min
[7]
  MBC: 16 μM mL^−1
[7]; 24 h
  MIC: 8 μM mL^−1
